In patent US20230133132A1, “NAMPT MODULATORS” (Cytokinetics, Inc., priority 2020, published 2023):
Some of these results come from one statement about several compounds together.

Amino acid sequences for entries named in this document (tags omitted). A change or cut given only in a name is not applied to a line headed by its entry.
UniProt P43490: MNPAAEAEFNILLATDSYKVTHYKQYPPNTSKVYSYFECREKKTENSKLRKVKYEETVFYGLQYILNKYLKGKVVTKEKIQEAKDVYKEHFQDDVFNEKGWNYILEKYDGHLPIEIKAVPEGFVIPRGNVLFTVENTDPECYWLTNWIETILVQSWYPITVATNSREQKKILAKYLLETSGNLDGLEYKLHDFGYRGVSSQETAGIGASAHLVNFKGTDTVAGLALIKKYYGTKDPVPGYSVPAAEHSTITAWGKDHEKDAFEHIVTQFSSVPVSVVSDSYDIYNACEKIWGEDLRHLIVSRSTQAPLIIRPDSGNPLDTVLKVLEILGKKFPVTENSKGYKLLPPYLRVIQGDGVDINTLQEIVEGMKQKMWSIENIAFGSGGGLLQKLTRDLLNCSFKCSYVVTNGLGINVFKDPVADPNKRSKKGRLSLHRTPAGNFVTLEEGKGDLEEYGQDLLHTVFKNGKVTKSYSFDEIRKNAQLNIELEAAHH

How the values were obtained:
[1] = biological target: T1, endogenous NAMPT (Homo sapiens, UniProt P43490); assay: Cellular NAD+ modulation assay in SH-SY5Y cells; format: cell-based; conditions: doxorubicin added, 40 hours, cellular NAD readout
T1 construct: stimulate the endogenous NAMPT in a native cellular environment; endogenous in cells; host or cells: SH-SY5Y neuroblastoma cells
Method: The compounds described herein were also assayed for their ability to stimulate the endogenous NAMPT in a native cellular environment in the cellular NAD+ modulation assay, which measures the ability of the compound to modulate cellular NAD levels. Increased levels of NAD are expected by compounds that permeate the cells and activate the catalytic activity of the endogenous NAMPT.
Neuroblastoma SH-SY5Y cells were grown in 1:1 mixture of Eagle's Minimum Essential Medium and F12 Medium, along with 10% fetal bovine serum, in a humidified incubator with an atmosphere of 95% air and 5% C02 at 37° C. The assays were initiated by plating 20 μL of SH-SY5Y cells in culture medium with 0.1% fetal bovine serum, at a density of 5000 cells per well to a 384-well Corning™ BioCoat™ Poly-D-Lysine Multiwell Plates. The plates were incubated in the 37° C. incubators for a period of 5 hours. Compounds in DMSO were added to the plates in a volume of 120 nL using the Labcyte Echo Liquid Handlers. […] 30 μL of a readout-solution containing 0.2 U/mL Diaphorase enzyme, 40 uM resazurin, 10 uM FMN, 0.8 U/mL Alcohol dehydrogenase, 3% ethanol, 0.4 mg/mL bovine serum albumin, 0.2% Triton X-100 in 100 mM Tris-HCl, 30 mM EDTA, pH 8.4. The plates were read for fluorescence (Excitation/Emission=540 nm/590 nm) using an EnVision plate reader after 60 mins of incubation at ambient temperature.

[2] = biological target: human NAMPT (Homo sapiens, UniProt P43490); assay: Human recombinant enzyme assay (NMN fluorescence biochemical assay); conditions: 6 nM human NAMPT, 60 min, NMN formation by fluorescence
Method: Compounds described herein were assayed for their ability to stimulate the synthesis of nicotinamide mononucleotide (NMN) by the enzyme NAMPT. The human recombinant enzyme assay measures the activation of the enzyme activity by compounds using recombinant enzyme and substrates in a buffered cell-free system. The assay conditions closely mimic cellular environments. Dose responses were measured using an assay to detect the formation of nicotinamide mono-nucleotide. All experiments were performed in the 384-well format. Generally, 0.5 μL of DMSO containing varying concentrations of the test compound was mixed with 10 μL of the enzyme reagent solution. Enzyme reactions were initiated with the addition of 10 μL of a solution containing the substrates. The final assay conditions were as follows: 6 nM human NAMPT, 2.5 mM ATP, 20 μM PRPP and 150 μM nicotinamide in 50 mM HEPES, pH 7.2, 1 mM DTT, 1 mM CHAPS 50 mM NaCl, 100 mM MgCl2. Following an incubation of 60 min at ambient temperature, 10 μL of 20% acetophenone in DMSO was added, followed by 10 μL of 2 M KOH and 40 μL of formic acid. The plates were read for fluorescence (Excitation/Emission=355 nm/460 nm) using an EnVision plate reader after 40 mins of incubation at ambient temperature.

Row | SMILES | AC0.3 designation [1] | AC1.4 designation [2]
1 | CC(C)(O)CN1CCN(Cc2ccc(NC(=O)NCc3ccc(F)cc3)cc2)CC1 [Compound 167, {[(4-fluorophenyl)methyl]amino}-N-(4-{[4-(2-hydroxy-2-methylpropyl)piperazinyl]methyl}phenyl)carboxamide] | B (AC0.3 values that are between 0.5 μM and 2.5 μM) | 
2 | COc1ccc(CNC(=O)Nc2ccc(CN3CCN(CC(C)(C)O)CC3)cc2)cc1 [Compound 242, 1-(4-((4-(2-hydroxy-2-methylpropyl)piperazin-1-yl)methyl)phenyl)-3-(4-methoxybenzyl)urea] | B (AC0.3 values that are between 0.5 μM and 2.5 μM) | A (AC1.4 values that are less than 0.5 μM)
3 | CC(C)(O)CN1CCN(Cc2ccc(NC(=O)NCc3ccc(Cl)cc3)cc2)CC1 [Compound 36, {[(4-chlorophenyl)methyl]amino}-N-(4-{[4-(2-hydroxy-2-methylpropyl)piperazinyl]methyl}phenyl)carboxamide] |  | A (AC1.4 values that are less than 0.5 μM)
